According to the supplement of paper PMC9135407:
Several values for one entry are separate records, joined by “and”; a condition that tells them apart may be missing. Equal values may be shown once. Where a name gives a salt, the structure may show the parent alone. ± gives the standard deviation of the averaged measurements. The list shows a part of the results. Part of the spread comes from offsets between plates or batches.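 Assay uses culture-activated primary human stellate myofibroblasts; lipid droplet recovery indicates inactivation. Measured: proportion of Hoechst-counted cells over a plate-specific Bodipy cutoff, duplicate wells, DMSO and nortriptyline as per-plate negative and positive controls. A hit scores, control-normalized, above the plate's top-tenth-percentile nortriptyline wells or ranks among its three best wells. Final well concentrations not reported.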

Test system: primary human hepatic stellate cells (donor 1)
Assay: percent Bodipy-positive cells; higher = more lipid droplet accumulation
Conditions: 48 h
Experimental: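 Primary lipid accumulation screen in primary human hepatic stellate cell myofibroblasts (donor 1, passage 8) in 384-well plates. 100 nL of library compound was pin-transferred into 30 µL medium in duplicate, and cells were treated for 48 h. The 'Scaled' score combines distance from plate baseline, toxicity and reproducibility penalties, and is normalised to nortriptyline (positive) and DMSO (negative) controls on each plate. A hit is defined as scaled >0.85 or among the top 3 wells per plate.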

[1] = library stock concentration: 1 mM
[2] = library stock concentration: 3.33 mM
[3] = library stock concentration: 10 mM
[4] = library stock concentration: 6.8 mM

`CC(=O)c1ncc([C@@H](O)[C@H](O)[C@H](O)CO)[nH]1` [2-Acetyl-5-tetrahydroxybutyl Imidazole] was tested, and the “percent Bodipy-positive cells” value [1] was 11.3 ± 1%.

`CC(C)OC(=O)[C@H](C)N[P@](=O)(OC[C@H]1O[C@@H](n2ccc(=O)[nH]c2=O)[C@](C)(F)[C@@H]1O)Oc1ccccc1` [Sofosbuvir (PSI-7977, GS-7977)] was tested, and the “percent Bodipy-positive cells” value [2] was 9.23 ± 4.5% and the “percent Bodipy-positive cells” value [3] was 16.2 ± 7.3%.

In the case of `Clc1cnccn1` [2-Chloropyrazine], the “percent Bodipy-positive cells” value is reported as 11.7 ± 0.14%.

For `Nc1nc2c(ncn2[C@@H]2O[C@H](CO)[C@@H](O)[C@H]2O)c(=O)[nH]1` [Guanosine], the “percent Bodipy-positive cells” value [2] was 10.9 ± 1.3% and the “percent Bodipy-positive cells” value [3] was 26.9 ± 3.8%.

For `CC(O)C(=O)O.CC(O)C(=O)O.CN1CCN(c2ccc3nc(-c4c(N)c5c(F)cccc5[nH]c4=O)[nH]c3c2)CC1` [Dovitinib (TKI-258) Dilactic Acid], the “percent Bodipy-positive cells” value [2] was 95.69 ± 0.46%.

In the case of `CCCCCC(=O)CC[C@@H]1[C@@H](CCCCCCC(=O)O)[C@@H](O)C[C@H]1O` [13,14-dihydro-15-keto Prostaglandin F1.alpha.], the “percent Bodipy-positive cells” value [1] is reported as 19.5 ± 3.5%.

In the case of `Cc1cc2c(cc1S(N)(=O)=O)S(=O)(=O)CCC2` [Meticrane], the “percent Bodipy-positive cells” value is reported as 21.1 ± 0.72%.

For `CCn1c2ccccc2c2cc(Nc3ccnc(NCCCN4CCOCC4)n3)ccc21`, the “percent Bodipy-positive cells” value [2] was 99.53 ± 0.66% and the “percent Bodipy-positive cells” value [3] was 98.6 ± 2%.

For `c1ccc(C(OC2CCN(CCCc3nn[nH]n3)CC2)c2ccccc2)cc1`, the “percent Bodipy-positive cells” value [1] was 20.1 ± 4.4%.

`CCCCCCc1ccc(O)cc1O.Nc1c2ccccc2nc2ccccc12` [Acrisorcin] was tested, and the “percent Bodipy-positive cells” value (library stock concentration: 5.1 mM) was 72.6 ± 8.4% and the “percent Bodipy-positive cells” value [3] was 88.2 ± 1.6%.

`O=C1[C@H](Cc2ccc(O)cc2)N2C(=O)CCN(C(=O)NCc3ccccc3)[C@H]2CN1Cc1cccc2ccccc12` was tested, and the “percent Bodipy-positive cells” value [2] was 15.4 ± 0.76% and the “percent Bodipy-positive cells” value [3] was 44 ± 3.2%.

In the case of `CC/C(=C\C(=N\O)C(N)=O)C(C)[N+](=O)[O-]` (centres undefined), the “percent Bodipy-positive cells” value [1] is reported as 9.07 ± 1.2%.

For `CCCc1ccc(C(=O)Oc2ccc(C#N)cc2)cc1`, the “percent Bodipy-positive cells” value [3] was 27 ± 2.7%.

`CCCCc1ccc(N=CNO)c(C)c1` was tested, and the “percent Bodipy-positive cells” value [1] was 6.02 ± 0.67%.

In the case of `COC(=O)Nc1nc2cc(C(=O)c3ccccc3)ccc2[nH]1` [Mebendazol], the “percent Bodipy-positive cells” value [4] is reported as 26 ± 6%.

With `COC(=O)Nc1nc2cc(C(=O)c3ccccc3)ccc2[nH]1` [Mebendazole] the “percent Bodipy-positive cells” value was 39.6 ± 8.5%, the “percent Bodipy-positive cells” value [4] was 36.7 ± 9.7% and the “percent Bodipy-positive cells” value [3] was 61.4% and 58.1%.

In the case of `CC1(C)S[C@@H]2[C@H](NC(=O)[C@H](NC(=O)N3CCNC3=O)c3ccccc3)C(=O)N2[C@H]1C(=O)O` [Azlocillin sodium], the “percent Bodipy-positive cells” value [3] is reported as 36.5 ± 13%.

With `CC1(C)S[C@@H]2[C@H](NC(=O)[C@H](NC(=O)N3CCNC3=O)c3ccccc3)C(=O)N2[C@H]1C(=O)O` [Azlocillin sodium salt] the “percent Bodipy-positive cells” value was 9.97 ± 3%, the “percent Bodipy-positive cells” value [2] was 13.7 ± 5.5% and the “percent Bodipy-positive cells” value [3] was 22.4 ± 2.7%.

`N#CC(=Cc1ccc2[nH]ccc2c1)C(N)=C(C#N)C#N` was tested, and the “percent Bodipy-positive cells” value (library stock concentration: 19.3 mM) was 65.4 ± 3.8%.

With `NC(=O)c1cc[n+](CC2=C(C(=O)O)N3C(=O)[C@@H](NC(=O)[C@@H](c4ccccc4)S(=O)(=O)[O-])[C@H]3SC2)cc1` [Cefsulodin sodium] the “percent Bodipy-positive cells” value (library stock concentration: 3.6 mM) was 15.1 ± 7%.
